Measurements taken from patent publication EP4834373A1, “CYCLIC DINUCLEOTIDE COMPOUND, CONJUGATE THEREOF, AND USE THEREOF” (dated 2026).
Structures were worked out from names or drawings and are uncertain.

System: Mouse colon cancer CT26-hHER2 cells
Experiment: In vivo efficacy, mouse colon cancer CT26-hHER2 subcutaneous xenograft model
Conditions: 0.3 mg/kg i.t. QW×2
Procedure: Cell culture: Mouse colon cancer CT26-hHER2 cells were maintained as monolayers in RPMI-1640 medium containing 10% fetal bovine serum at 37°C in a constant temperature incubator with 5% CO2. Cells were subcultured twice weekly after treatment with trypsin-EDTA. Cells in the exponential growth phase were harvested and counted for inoculation.
Experimental animals: BALB/c mice, 6-8 weeks, 16-18 g, purchased from Beijing Vital River Laboratory Animal Technology Co., Ltd.
12 experimental groups were set for Trastuzumab + I-3, II-4, II-6, II-38, II-43, II-42, II-44, II-49, II-53, II-57, and II-58, as shown in Table 10 below: Table 10
Experimental method: CT26-hHER2 cell line (3.0 × 10^6/mouse) was inoculated subcutaneously on the right back of experimental mice. The inoculation volume of each mouse was 0.1 mL. The growth of the tumor was observed regularly. When the tumor grew to about 100 mm^3, the mice were randomly grouped according to the size of the tumor and their body weights, and the drug was administered in accordance with the administration schedule, and the body weights and tumor sizes of the mice were measured two times per week throughout the experimental process.
Tumor size calculation formula: tumor volume (mm^3) = 0.5 × (tumor long diameter × tumor short diameter^2).

Compound: CO[C@H]1[C@H]2O[P@](=O)(S)OC[C@H]3O[C@@H](n4cnc5c(N)ncnc54)[C@H](F)[C@@H]3O[P@](=O)(S)OC[C@H]1O[C@H]2n1c(=O)sc2c(N)ncnc21
- Tumor volume (Day 24, mm^3): 292.9±81.0 mm^3
- T/C (%) (Day 24): 14.2%
- TGI (%) (Day 24): 85.9%
